Results published in paper PMC9601806 (Foods, 2022).
Where a sequence shows no end group, the ends are not given.

Assay: peptide made by a vendor
Conditions: whole synthesis, HPLC

**Q.** For DEDEQIPSLPPR, which “purity (crude or final not stated)” value is on record?
**A.** 98%
